The other results are listed elsewhere or left out.
What was measured:
Assay in all cases: log2 fold change, soluble protein after heating vs DMSO (PISA); higher = thermal stabilisation; K562 lysate, 10 uM; active = over 0.2 and 3.5 SD of the protein, either way, in both replicates (recomputed)
ibrutinib = compound: C=CC(=O)N1CCC[C@@H](n2nc(-c3ccc(Oc4ccccc4)cc3)c3c(N)ncnc32)C1 [ibrutinib]
How it was run: (§1)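 Dounce homogenisation of K562 pellets in PBS pH 7.4 with 1 mM MgCl2 produced a crude extract, used at 1 mg/mL protein. Exposure to 10 μM compound lasted 30 min, and aliquots were then heated for 3 min across 48°C-58°C, pooled and brought to 0.5% NP-40 at 4°C. The supernatant after 21,000xg for 90 min was quantified by TMTpro 16plex LC-MS/MS with channel sums equalised. Duplicate values are given as log-two fold change in thermal stability relative to solvent controls.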

Amino acid sequences for entries named in this document (tags omitted). A change or cut given only in a name is not applied to a line headed by its entry.
UniProt P46063: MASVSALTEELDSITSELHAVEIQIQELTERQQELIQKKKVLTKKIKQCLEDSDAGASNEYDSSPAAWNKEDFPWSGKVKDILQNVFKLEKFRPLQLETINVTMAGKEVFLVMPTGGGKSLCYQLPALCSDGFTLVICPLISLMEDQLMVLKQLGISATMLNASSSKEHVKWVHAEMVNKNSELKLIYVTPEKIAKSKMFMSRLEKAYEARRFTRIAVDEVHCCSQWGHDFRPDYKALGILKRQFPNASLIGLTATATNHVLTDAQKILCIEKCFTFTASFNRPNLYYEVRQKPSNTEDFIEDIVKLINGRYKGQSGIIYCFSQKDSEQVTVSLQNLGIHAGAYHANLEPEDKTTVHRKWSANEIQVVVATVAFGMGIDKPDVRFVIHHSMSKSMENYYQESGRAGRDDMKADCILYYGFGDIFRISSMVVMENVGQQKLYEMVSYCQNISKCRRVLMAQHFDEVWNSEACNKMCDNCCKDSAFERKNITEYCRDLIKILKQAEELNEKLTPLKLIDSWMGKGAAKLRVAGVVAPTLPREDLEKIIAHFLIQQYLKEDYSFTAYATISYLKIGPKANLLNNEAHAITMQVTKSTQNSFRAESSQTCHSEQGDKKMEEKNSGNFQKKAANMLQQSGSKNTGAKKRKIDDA
UniProt P78332: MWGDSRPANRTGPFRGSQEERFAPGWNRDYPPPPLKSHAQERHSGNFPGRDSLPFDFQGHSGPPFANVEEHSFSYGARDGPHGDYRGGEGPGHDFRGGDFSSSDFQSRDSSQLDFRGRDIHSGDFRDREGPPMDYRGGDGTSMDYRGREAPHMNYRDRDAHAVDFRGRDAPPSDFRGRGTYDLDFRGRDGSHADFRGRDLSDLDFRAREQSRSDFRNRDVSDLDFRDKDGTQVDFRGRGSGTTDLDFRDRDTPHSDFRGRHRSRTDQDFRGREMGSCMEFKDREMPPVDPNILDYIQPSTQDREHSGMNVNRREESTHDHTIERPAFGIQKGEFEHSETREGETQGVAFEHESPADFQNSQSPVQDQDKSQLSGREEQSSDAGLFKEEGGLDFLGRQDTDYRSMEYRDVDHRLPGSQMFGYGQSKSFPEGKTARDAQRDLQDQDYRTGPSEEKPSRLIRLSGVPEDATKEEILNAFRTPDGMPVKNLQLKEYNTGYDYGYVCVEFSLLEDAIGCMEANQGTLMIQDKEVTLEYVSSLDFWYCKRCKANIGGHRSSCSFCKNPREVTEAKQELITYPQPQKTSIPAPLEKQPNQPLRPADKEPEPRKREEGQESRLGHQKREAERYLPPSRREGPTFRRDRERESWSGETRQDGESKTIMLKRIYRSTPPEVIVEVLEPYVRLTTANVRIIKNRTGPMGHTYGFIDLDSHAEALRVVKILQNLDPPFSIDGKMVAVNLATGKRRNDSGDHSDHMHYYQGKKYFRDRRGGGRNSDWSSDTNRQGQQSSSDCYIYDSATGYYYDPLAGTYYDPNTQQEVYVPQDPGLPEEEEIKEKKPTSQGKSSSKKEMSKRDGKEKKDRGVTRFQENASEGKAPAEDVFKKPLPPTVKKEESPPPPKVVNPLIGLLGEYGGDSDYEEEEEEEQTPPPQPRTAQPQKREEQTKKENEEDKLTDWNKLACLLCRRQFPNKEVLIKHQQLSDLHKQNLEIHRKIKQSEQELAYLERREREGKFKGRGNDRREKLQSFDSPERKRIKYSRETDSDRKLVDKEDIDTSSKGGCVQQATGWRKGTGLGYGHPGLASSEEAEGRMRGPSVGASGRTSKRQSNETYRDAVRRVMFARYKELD
UniProt Q96I25: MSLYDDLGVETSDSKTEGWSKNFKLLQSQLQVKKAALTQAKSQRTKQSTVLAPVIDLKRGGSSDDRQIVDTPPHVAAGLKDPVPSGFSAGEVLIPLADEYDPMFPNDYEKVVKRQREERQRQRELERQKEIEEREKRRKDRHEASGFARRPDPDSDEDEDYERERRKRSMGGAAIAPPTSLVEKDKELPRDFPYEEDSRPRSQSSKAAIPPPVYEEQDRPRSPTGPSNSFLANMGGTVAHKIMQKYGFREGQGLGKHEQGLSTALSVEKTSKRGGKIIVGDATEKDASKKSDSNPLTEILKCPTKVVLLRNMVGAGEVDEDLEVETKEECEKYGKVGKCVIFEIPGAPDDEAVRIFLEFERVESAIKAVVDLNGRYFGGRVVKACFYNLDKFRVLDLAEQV
UniProt Q9BYM8: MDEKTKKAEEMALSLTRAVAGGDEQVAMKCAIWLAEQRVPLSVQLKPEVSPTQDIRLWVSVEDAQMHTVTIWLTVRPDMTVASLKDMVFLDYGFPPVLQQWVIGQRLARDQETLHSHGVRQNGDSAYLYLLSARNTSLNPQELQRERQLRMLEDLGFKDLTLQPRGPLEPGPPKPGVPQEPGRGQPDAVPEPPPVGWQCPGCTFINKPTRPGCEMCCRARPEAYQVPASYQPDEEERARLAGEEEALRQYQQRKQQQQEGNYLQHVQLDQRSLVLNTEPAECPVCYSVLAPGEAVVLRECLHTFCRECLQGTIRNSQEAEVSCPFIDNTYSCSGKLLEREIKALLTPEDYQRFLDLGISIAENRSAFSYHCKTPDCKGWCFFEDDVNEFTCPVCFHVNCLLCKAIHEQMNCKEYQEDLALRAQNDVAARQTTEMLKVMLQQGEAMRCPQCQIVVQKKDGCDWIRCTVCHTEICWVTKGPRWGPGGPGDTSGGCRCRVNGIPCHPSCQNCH
UniProt Q9UKL0, whole entry, looked up: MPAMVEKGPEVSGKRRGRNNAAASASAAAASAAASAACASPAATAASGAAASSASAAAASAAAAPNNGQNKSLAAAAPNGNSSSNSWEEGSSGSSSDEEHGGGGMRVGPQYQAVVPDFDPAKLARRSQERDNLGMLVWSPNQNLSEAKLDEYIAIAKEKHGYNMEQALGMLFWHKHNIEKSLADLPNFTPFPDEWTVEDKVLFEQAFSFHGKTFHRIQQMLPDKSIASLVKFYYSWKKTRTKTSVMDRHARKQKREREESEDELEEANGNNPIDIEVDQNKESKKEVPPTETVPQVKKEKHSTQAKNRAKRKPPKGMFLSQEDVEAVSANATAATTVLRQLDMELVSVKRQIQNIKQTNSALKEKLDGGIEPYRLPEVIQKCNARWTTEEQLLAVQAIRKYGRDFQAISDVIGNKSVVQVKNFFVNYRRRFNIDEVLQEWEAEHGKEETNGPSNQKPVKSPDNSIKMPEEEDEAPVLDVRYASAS
UniProt Q14498: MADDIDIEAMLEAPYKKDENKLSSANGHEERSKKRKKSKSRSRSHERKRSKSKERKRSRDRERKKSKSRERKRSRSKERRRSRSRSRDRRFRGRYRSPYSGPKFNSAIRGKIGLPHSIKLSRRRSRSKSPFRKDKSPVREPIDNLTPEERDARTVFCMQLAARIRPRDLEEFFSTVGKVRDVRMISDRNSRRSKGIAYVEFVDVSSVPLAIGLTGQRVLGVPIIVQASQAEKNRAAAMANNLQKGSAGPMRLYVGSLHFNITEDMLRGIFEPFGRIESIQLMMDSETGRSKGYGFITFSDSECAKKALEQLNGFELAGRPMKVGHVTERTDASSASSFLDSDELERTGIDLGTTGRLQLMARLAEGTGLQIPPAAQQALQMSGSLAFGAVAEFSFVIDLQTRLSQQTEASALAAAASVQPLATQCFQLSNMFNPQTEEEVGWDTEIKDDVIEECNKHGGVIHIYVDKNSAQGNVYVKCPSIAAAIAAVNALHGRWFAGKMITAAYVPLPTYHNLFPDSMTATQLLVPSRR
UniProt Q04864: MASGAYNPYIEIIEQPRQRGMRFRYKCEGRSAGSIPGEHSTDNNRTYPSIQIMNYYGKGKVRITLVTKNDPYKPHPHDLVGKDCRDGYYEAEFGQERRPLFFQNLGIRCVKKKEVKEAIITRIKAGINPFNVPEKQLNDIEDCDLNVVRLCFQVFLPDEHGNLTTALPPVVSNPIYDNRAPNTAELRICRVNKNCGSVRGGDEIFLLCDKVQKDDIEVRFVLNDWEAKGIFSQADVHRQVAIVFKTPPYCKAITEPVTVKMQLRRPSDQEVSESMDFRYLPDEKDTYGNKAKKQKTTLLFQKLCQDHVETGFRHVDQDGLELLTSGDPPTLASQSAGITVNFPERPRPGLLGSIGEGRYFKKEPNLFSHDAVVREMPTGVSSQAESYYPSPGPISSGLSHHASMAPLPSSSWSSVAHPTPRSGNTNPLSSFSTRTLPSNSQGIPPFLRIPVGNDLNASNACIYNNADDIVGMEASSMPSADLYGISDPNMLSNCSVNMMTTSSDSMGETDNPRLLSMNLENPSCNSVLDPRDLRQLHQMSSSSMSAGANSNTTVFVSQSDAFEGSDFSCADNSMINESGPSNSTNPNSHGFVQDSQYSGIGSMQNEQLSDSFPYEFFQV
UniProt Q9P258, whole entry, looked up: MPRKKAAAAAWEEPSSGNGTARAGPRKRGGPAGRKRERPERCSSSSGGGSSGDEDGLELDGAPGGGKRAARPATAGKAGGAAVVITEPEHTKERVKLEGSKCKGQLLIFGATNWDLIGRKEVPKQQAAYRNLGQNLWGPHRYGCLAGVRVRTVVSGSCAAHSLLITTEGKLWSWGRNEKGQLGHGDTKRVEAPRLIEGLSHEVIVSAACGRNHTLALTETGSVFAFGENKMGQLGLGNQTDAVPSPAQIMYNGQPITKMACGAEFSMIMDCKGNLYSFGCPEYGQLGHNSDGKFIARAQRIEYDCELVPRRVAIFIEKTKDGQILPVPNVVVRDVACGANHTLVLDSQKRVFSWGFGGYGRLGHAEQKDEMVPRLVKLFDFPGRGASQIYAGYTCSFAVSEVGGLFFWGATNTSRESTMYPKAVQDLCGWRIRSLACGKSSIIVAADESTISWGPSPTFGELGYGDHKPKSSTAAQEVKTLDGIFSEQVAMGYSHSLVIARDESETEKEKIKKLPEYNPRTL
UniProt Q9UBZ9: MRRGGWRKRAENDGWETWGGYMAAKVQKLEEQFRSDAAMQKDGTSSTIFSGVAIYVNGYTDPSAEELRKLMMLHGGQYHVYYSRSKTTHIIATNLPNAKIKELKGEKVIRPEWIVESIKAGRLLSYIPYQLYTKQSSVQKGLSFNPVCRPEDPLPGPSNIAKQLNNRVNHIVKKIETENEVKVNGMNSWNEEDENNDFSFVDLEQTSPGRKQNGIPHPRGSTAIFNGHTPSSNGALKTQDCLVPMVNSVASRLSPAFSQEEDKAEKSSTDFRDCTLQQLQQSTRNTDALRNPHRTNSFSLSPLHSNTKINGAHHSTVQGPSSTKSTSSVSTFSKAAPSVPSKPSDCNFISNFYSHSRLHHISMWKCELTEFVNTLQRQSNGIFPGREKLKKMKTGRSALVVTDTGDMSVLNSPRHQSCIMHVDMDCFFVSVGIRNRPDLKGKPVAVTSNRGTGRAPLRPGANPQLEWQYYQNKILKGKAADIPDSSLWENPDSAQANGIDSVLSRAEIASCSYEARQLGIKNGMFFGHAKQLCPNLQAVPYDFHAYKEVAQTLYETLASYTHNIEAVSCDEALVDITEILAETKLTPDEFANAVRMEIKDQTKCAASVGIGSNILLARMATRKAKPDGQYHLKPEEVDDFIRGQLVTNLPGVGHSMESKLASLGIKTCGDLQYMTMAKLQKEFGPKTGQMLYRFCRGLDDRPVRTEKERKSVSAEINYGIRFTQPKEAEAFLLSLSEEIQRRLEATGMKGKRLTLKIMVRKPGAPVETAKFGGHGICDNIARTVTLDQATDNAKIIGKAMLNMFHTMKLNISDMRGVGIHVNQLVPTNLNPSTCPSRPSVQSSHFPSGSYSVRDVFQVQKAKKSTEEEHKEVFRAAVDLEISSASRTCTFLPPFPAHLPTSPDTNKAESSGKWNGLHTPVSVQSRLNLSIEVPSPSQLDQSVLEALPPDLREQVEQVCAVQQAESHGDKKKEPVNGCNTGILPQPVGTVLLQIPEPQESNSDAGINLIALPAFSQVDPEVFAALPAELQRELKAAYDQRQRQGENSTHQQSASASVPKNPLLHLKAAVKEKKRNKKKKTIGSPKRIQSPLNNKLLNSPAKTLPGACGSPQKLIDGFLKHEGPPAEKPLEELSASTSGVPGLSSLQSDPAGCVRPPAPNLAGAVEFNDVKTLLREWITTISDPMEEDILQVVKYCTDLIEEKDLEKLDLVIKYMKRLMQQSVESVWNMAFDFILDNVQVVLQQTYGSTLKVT
UniProt Q02094: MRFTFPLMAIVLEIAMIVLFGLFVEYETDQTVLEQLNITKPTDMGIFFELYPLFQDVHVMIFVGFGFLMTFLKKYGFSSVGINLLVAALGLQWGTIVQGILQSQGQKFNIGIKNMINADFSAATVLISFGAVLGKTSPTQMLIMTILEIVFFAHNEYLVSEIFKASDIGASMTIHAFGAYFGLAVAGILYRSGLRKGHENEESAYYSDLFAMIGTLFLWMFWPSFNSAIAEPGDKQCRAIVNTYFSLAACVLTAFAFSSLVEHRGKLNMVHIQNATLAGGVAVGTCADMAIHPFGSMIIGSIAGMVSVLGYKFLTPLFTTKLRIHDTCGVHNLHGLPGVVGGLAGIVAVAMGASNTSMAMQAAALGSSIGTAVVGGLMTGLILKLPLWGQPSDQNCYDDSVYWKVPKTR

[1] = compound: CC(=O)c1cnc2ccc(-c3cc(Cl)c(O)c(Cl)c3)nc2c1N[C@H]1CC[C@H](CN(C)C)CC1
How it was run: as §1

ralimetinib = compound: CC(C)(C)Cn1c(N)nc2ccc(-c3[nH]c(C(C)(C)C)nc3-c3ccc(F)cc3)nc21 [ralimetinib]
How it was run: as §1

[2] = compound: CC(C)(O)CC(=O)NCCn1ccc2ncnc(Nc3ccc(Oc4cccc(C(F)(F)F)c4)c(Cl)c3)c21
How it was run: as §1

[3] = compound: CC(C)C1=C2N=C(C=C(N2N=C1)NCC3=CC=CC=C3)NCCCCCCN
How it was run: as §1

[4] = compound: CC1=C(C(CC(=O)N1)C2=CC=C(C=C2)C(F)(F)F)C(=O)NC3=C(C=C4C(=C3)C=NN4)F
How it was run: as §1

[5] = compound: CC1=C(C2=C(C=C1)C(=O)C3=CC=CC=C3N2CCCN)C
How it was run: as §1

[6] = compound: CC1=C(C=C(C=C1)NC(=O)C2=CC(=CC=C2)C(C)(C)C#N)NC3=CC4=C(C=C3)N=CN(C4=O)C
How it was run: as §1

[7] = compound: CC1=C(C=C(C=C1)NC(=O)C2=CC(=CC=C2)N(C)C)NC(=O)C3=CC=C(C=C3)O
How it was run: as §1

[8] = compound: CC1=CC=C(C=C1)SC2=C3C=C(SC3=CN=C2)C(=O)N
How it was run: as §1

Measured: log2 fold change

RGPD5 (UniProt Q99666)
inactive: ibrutinib 0.01 | [1] 0.065 | ralimetinib -0.001 | [2] -0.01 | [3] 0.077 | [4] -0.018 | [5] -0.018 | [6] -0.009 | [7] -0.009 | [8] 0.008

RECQL (UniProt P46063)
inactive: ibrutinib -0.012 | [1] -0.003 | ralimetinib 0.002 | [2] 0.019 | [3] 0.011 | [4] -0.004 | [5] -0.017 | [6] 0.017 | [7] -0.015 | [8] -0.003

RB1CC1 (UniProt Q8TDY2)
inactive: ibrutinib 0.012 | [1] -0.026 | ralimetinib -0.012 | [2] -0.029 | [3] -0.003 | [4] 0.001 | [5] -0.019 | [6] 0.014 | [7] 0.048 | [8] -0.014

RBL1 (UniProt P28749)
inactive: ibrutinib -0.001 | [1] -0.031 | ralimetinib 0.117 | [2] -0.01 | [3] 0.009 | [4] 0.181 | [5] -0.081 | [6] 0.024 | [7] 0.031 | [8] -0.07

RBM8A (UniProt Q9Y5S9)
inactive: ibrutinib -0.001 | [1] -0.016 | ralimetinib -0.011 | [2] 0.057 | [3] -0.038 | [4] -0.004 | [5] 0.066 | [6] -0.101 | [7] 0.035 | [8] 0.027

RBM6 (UniProt P78332)
inactive: ibrutinib -0.001 | [1] -0.054 | ralimetinib 0.01 | [2] -0.043 | [3] -0.001 | [4] -0.025 | [5] -0.009 | [6] -0.002 | [7] -0.071 | [8] 0.116

RBM14 (UniProt Q96PK6)
inactive: ibrutinib -0.027 | [1] 0.048 | ralimetinib 0.103 | [2] 0.08 | [3] -0.072 | [4] 0.047 | [5] -0.008 | [6] 0.015 | [7] -0.009 | [8] 0.033

RFX7 (UniProt Q2KHR2)
inactive: ibrutinib 0.057 | [1] -0.075 | ralimetinib -0.092 | [2] 0.152 | [3] -0.036 | [4] 0.006 | [5] -0.11 | [6] -0.017 | [7] 0.018 | [8] -0.034

RBM17 (UniProt Q96I25)
inactive: ibrutinib 0.02 | [1] 0.002 | ralimetinib -0.004 | [2] 0.007 | [3] 0.007 | [4] 0.036 | [5] 0 | [6] 0.002 | [7] 0.003 | [8] -0.001

RBSN (UniProt Q9H1K0)
inactive: ibrutinib 0.018 | [1] 0.043 | ralimetinib -0.014 | [2] -0.007 | [3] 0.043 | [4] 0.025 | [5] -0.032 | [6] 0.044 | [7] 0.003 | [8] 0.035

RDH10 (UniProt Q8IZV5)
inactive: ibrutinib 0.016 | [1] -0.015 | ralimetinib 0.04 | [2] -0.013 | [3] 0.03 | [4] -0.007 | [5] -0.033 | [6] -0.045 | [7] -0.034 | [8] -0.016

RELA (UniProt Q04206)
inactive: ibrutinib -0.004 | [1] -0.025 | ralimetinib 0.03 | [2] -0.037 | [3] 0.031 | [4] -0.01 | [5] 0.001 | [6] 0.013 | [7] -0.043 | [8] -0.016

RCC1 isoform 2 (UniProt P18754)
inactive: ibrutinib -0.008 | [1] 0.012 | ralimetinib 0.041 | [2] 0.019 | [3] 0.015 | [4] -0.048 | [5] -0.037 | [6] -0.01 | [7] 0.036 | [8] 0.01

RBM22 (UniProt Q9NW64)
inactive: ibrutinib 0.01 | [1] -0.007 | ralimetinib -0.03 | [2] -0.044 | [3] -0.033 | [4] 0.009 | [5] -0.014 | [6] 0.043 | [7] -0.01 | [8] -0.006

RAPGEF5, A0A590UJR0
inactive: ibrutinib 0.028 | [1] -0.031 | ralimetinib -0.023 | [2] -0.049 | [3] -0.372 | [4] -0.287 | [5] 0.01 | [6] 0.056 | [7] -0.025 | [8] 0.049

RBCK1 (UniProt Q9BYM8)
inactive: ibrutinib -0.017 | [1] 0.023 | ralimetinib 0.055 | [2] -0.004 | [3] -0.035 | [4] 0.037 | [5] -0.008 | [6] 0.028 | [7] 0 | [8] 0.019

RCOR1 (UniProt Q9UKL0)
inactive: ibrutinib 0.016 | [1] -0.001 | ralimetinib 0.023 | [2] -0.028 | [3] 0.264 | [4] 0 | [5] 0.013 | [6] -0.049 | [7] 0.02 | [8] 0.021

Retrieved one by one from above (2):
RBM17 (UniProt Q96I25)
inactive: ibrutinib 0.02 | [1] 0.002 | ralimetinib -0.004 | [2] 0.007 | [3] 0.007 | [4] 0.036 | [5] 0 | [6] 0.002 | [7] 0.003 | [8] -0.001

RBM22 (UniProt Q9NW64)
inactive: ibrutinib 0.01 | [1] -0.007 | ralimetinib -0.03 | [2] -0.044 | [3] -0.033 | [4] 0.009 | [5] -0.014 | [6] 0.043 | [7] -0.01 | [8] -0.006

Additional results follow:

RBM39 (UniProt Q14498)
inactive: ibrutinib 0.011 | [1] 0.02 | ralimetinib 0.014 | [2] -0.006 | [3] 0.057 | [4] -0.001 | [5] -0.018 | [6] -0.007 | [7] 0.024 | [8] 0.071

RCN3 (UniProt Q96D15)
inactive: ibrutinib 0.137 | [1] -0.019 | ralimetinib -0.015 | [2] -0.016 | [3] -0.032 | [4] 0.01 | [5] -0.017 | [6] -0.01 | [7] 0.013 | [8] -0.002

RCCD1 (UniProt A6NED2)
inactive: ibrutinib 0.016 | [1] 0.014 | ralimetinib 0.014 | [2] -0.018 | [3] -0.012 | [4] 0.035 | [5] 0.015 | [6] 0.024 | [7] 0.033 | [8] -0.002

REL isoform 2 (UniProt Q04864)
inactive: ibrutinib 0.032 | [1] 0.015 | ralimetinib 0.06 | [2] -0.003 | [3] 0.005 | [4] -0.018 | [5] 0.038 | [6] 0.022 | [7] -0.023 | [8] 0.049

RCC2 (UniProt Q9P258)
inactive: ibrutinib -0.04 | [1] 0.011 | ralimetinib 0.014 | [2] 0.016 | [3] 0.006 | [4] -0.014 | [5] 0.006 | [6] -0.003 | [7] 0.01 | [8] 0.027

RBM28 (UniProt Q9NW13)
inactive: ibrutinib 0.007 | [1] -0.003 | ralimetinib 0.019 | [2] -0.013 | [3] 0.011 | [4] -0.024 | [5] -0.031 | [6] -0.023 | [7] 0.043 | [8] -0.003

RCN2 isoform 2 (UniProt Q14257)
inactive: ibrutinib 0.017 | [1] -0.019 | ralimetinib 0.031 | [2] -0.015 | [3] -0.048 | [4] 0.012 | [5] 0.01 | [6] -0.004 | [7] 0.011 | [8] -0.03

REV1 (UniProt Q9UBZ9)
inactive: ibrutinib 0.013 | [1] 0.035 | ralimetinib 0.074 | [2] 0.081 | [3] 0.012 | [4] 0.021 | [5] 0.078 | [6] -0.067 | [7] -0.001 | [8] -0.001

RASA1 (UniProt P20936)
inactive: ibrutinib -0.009 | [1] -0.012 | ralimetinib 0.025 | [2] -0.034 | [3] -0.002 | [4] 0.008 | [5] 0.01 | [6] -0.013 | [7] 0.017 | [8] -0.006

RGS14 (UniProt O43566)
inactive: ibrutinib -0.08 | [1] 0.035 | ralimetinib 0.112 | [2] 0.009 | [3] -0.123 | [4] 0.087 | [5] -0.033 | [6] 0.169 | [7] 0 | [8] -0.004

RHAG (UniProt Q02094)
inactive: ibrutinib 0.004 | [1] -0.035 | ralimetinib -0.001 | [2] -0.068 | [3] 0.042 | [4] 0.09 | [5] -0.056 | [6] 0.08 | [7] 0.008 | [8] -0.003

RFC3 (UniProt P40938)
inactive: ibrutinib 0.024 | [1] 0.131 | ralimetinib 0.03 | [2] -0.012 | [3] -0.04 | [4] 0.004 | [5] -0.034 | [6] 0.002 | [7] 0.042 | [8] -0.008

RBM3 (UniProt P98179)
inactive: ibrutinib -0.012 | [1] 0.022 | ralimetinib 0.077 | [2] 0.088 | [3] 0.003 | [4] -0.097 | [5] -0.007 | [6] -0.108 | [7] -0.005 | [8] 0.089

Reference: the supplement of paper PMC10849652
